For some of these results: At least one compound was matched to its structure with a doubt left. Some entries share one result that the patent states for a list of compounds.
Legend:
[1] = system: E16-17 mouse hippocampal neuronal cultures; test: GAP43 staining of hippocampal neuronal cultures; format: cell-based; details: 48 hours post treatment
[2] = system: E16-17 mouse hippocampal neurons; test: Hippocampal neuron survival (morphology plus MTT conversion); format: cell-based; details: for neuron survival response above 5 nM: concentrations greater than 5 nM; for neurotrophic activity (neuron survival response): 48 h, counts normalized to 25 ng/ml BDNF or baseline, up to 5 nM
Description: (§1) Hippocampal neurons were prepared from E16-17 mouse embryos as previously described (Yang. T. et al. (2003) J Neurosci 23, 3353-3363). […] For studies employing p75^NTR+/+ and p75^NTR−/− neurons, mice carrying a mutation in exon 3 of the p75^NTR gene (Lee, K. F. et al. (1992) Cell 69, 737-749) were bred onto a B6 congenic background (>10 B6 backcrosses).
(§2) After 48 hours in culture, cell survival was assessed as previously described (Longo, F. M., Manthorpe. M., Xie. Y. M., Varon, S. (1997) J Neurosci Res 48, 1-17) using a combination of standard morphological criteria along with visual determination of whether a given cell converted MTT to its blue formazan product. The number of surviving neurons was determined by counting the total number of cells in each well that were both morphologically intact and filed with blue product (Longo F. M., Manthorpe. M., Xie, Y. M., Varon, S. (1997) J Neurosci Res 48, 1-17). For each neurotrophin or compound concentration, duplicate wells were counted and the resulting values averaged. Activity of each compound was confirmed by blinded counts. Counts were normalized to survival achieved with 25 ng/ml BDNF or to baseline survival. Fitting of dose-responsive curves was performed with Sigmaplot obtained from SYSTAT Software Inc. (Richmond, Calif., United States of America).

Sequences of proteins named here, by UniProt entry; tags and fusion partners are left off. Residues count along the entry.
UniProt P15209, 32-821: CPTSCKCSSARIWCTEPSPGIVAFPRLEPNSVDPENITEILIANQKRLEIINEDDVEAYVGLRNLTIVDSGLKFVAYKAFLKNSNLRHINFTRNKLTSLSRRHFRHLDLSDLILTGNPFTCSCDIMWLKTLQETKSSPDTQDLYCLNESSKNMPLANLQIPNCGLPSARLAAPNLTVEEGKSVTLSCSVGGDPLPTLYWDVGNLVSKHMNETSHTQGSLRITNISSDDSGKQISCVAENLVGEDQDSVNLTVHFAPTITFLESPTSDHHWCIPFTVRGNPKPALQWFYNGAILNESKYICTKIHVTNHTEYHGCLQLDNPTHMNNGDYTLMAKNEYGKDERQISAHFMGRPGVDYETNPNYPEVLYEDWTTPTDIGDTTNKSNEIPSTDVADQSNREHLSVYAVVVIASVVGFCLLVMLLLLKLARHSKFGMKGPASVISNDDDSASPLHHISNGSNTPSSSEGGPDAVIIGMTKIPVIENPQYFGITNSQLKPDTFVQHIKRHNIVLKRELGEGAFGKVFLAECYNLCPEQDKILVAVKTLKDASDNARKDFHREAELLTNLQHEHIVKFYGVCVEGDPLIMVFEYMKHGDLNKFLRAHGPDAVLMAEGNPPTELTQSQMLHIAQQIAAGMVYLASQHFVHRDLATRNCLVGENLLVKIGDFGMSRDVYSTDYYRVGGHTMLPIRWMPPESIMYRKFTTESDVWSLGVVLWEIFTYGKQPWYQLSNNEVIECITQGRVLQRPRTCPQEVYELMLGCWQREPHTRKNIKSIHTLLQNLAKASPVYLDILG

chicken DRG neuronal = test: Chicken DRG neuronal survival assay; format: cell-based; details: preliminary screening
mature oligodendrocytes = test: Oligodendrocyte cell death assay (MBP/TUNEL) with or without proNGF; format: cell-based, rat; details: absence of proNGF, 24 h
Description: Cortical oligondendrocytes from rat pups were prepared as previously described (Yoon et al. (1998) J Neurosci 18, 3273-3281, Harrington, A. W., Kim, J. Y., Yoon, S. O. (2002) J Neurosci 22, 156-166). Cells were treated with recombinant, cleavage-resistant proNGF at 0.05 nM (2.8 ng/ml). Controls were treated with equivalent volumes of proNGF purification buffer containing 350 mM imidazole. 24 hours after treatment, the cells were fixed and processed for MBP and TUNEL staining as previously described (Beattie, M. S. et al. (2002) Neuron 36, 375-386). 200-250 cells were counted per well, for a minimum of 600 cells per experimental condition.

hippocampal neurons = test: Hippocampal neuron survival with signaling pathway inhibitors; format: cell-based, mouse; details: 48 h; for effect of PD98059 (ERK inhibitor) on survival promoted by the substance: PD98059 50 μM, BDNF/NGF 25 ng/ml, compounds 5 nM
Description: as §1, §2
For all studies applying signaling inhibitors, p75^NTR antibodies or p75^NTR−/− neurons, survival was assessed at 48 hours.

AKT = AKT activation western blot in hippocampal cultures; format: cell-based, mouse; details: p75NTR−/− neurons, versus culture medium alone
Description: (§3) For assays of Trk, AKT, NFκB, and ERK activation, hippocampal neurons derived from E16-17 mice were cultured in poly-L-lysine coated six-well plates (Corning, Inc., Corning, N.Y., United States of America) in DMEM containing 10% FBS, followed by incubation in serum-free DMEM for 2 hours before addition of neurotrophins or compounds. At the indicated time points, neurons were harvested in lysis buffer consisting of: 20 mM Tris, pH 8.0, 137 mM NaCl, 1% Igepal CA-630, 10% glycerol, 1 mM PMSF, 10 μg/ml aprotinin, 1 μg/ml leupeptin, 500 μM orthovanadate (Zhou, J., Valletta, J. S., Grimes, M. L., Mobley, W. C. (1995) J Neurochem 65, 1146-1156).
(§4) Lysates were centrifuged, the supernatant collected, and protein concentrations determined using the BCA Protein Assay Reagent obtained from Pierce (Rockford, Ill., United States of America). Western blots were performed as described previously (Yang, T. et al. (2003) J Neurosci 23, 3353-3363). Western blot signals were detected using the ECL Chemiluminescence System obtained by Amersham (Piscataway, N.J., United States of America) (Yang, T. et al. (2003) J Neurosci 23, 3353-3363).

TrkB = biological target: T1, TrkB (Mus musculus, UniProt P15209); test: Trk Y490 phosphorylation western blot in hippocampal neuron cultures; format: cell-based; details: 10 or 30 minutes
T1 construct: endogenous in cells; host or cells: primary hippocampal neurons from E16-17 mouse embryos
Description: as §3, §4

Row | Structure (SMILES) | number of GAP-43 positive neurite-bearing cells [1] | neuron survival response above 5 nM [2] | activity in DRG neuronal survival (chicken DRG neuronal) | neurotrophic activity (neuron survival response) [2] | promotion of oligodendrocyte cell death by compound alone (mature oligodendrocytes) | effect of PD98059 (ERK inhibitor) on survival promoted by the substance (hippocampal neurons) | AKT activation in p75NTR−/− cells (AKT) | TrkB activation (Trk Y490 phosphorylation) (TrkB) | effect of signaling inhibitor on survival including baseline (hippocampal neurons; SN50 2.5 μg/ml, LY294002 25 μM)
1 | NCCNc1ccc([N+](=O)O)c(N2CCCCC2)c1 [Compound 1] | increased the number of GAP-43 positive neurite-bearing cells | decrementing response above 5 nM |  |  |  |  |  |  | 
2 | O=S(=O)(c1ccc2c(c1)C(=NO)c1cc(S(=O)(=O)N3CCNCC3)ccc1-2)N1CCNCC1 [Compound 2] | increased the number of GAP-43 positive neurite-bearing cells | decrementing response above 5 nM | having activity using DRG cultures | demonstrated activity |  |  |  |  | 
3 | CN(C)CCCNC(=O)Cn1cnc2c1c(=O)n(C)c(=O)n2C [Compound 3] | increased the number of GAP-43 positive neurite-bearing cells | decrementing response above 5 nM | having activity using DRG cultures | demonstrated activity | do not promote death of mature oligondendrocytes | no effect | no significant differences | no detectable activation | 
4 | CCC(C)C(N)C(=O)NCCN1CCOCC1 (stereo not shown) [Compound 4] | increased the number of GAP-43 positive neurite-bearing cells | decrementing response above 5 nM | having activity using DRG cultures | demonstrated activity | do not promote death of mature oligondendrocytes | no effect | no significant differences | no detectable activation | 
5 | CCN(CC)CCCNC(=O)Cn1cnc2c1c(=O)n(C)c(=O)n2C [Compound 5] |  | decrementing response above 5 nM |  |  | do not promote death of mature oligondendrocytes | no effect | no significant differences | no detectable activation | 
6 | O=c1cc(N2CCOCC2)oc2c(-c3ccccc3)cccc12 [LY294002, reference compound] |  |  |  |  |  |  |  |  | markedly decreased survival in all cases

Source: patent US7723328B2, “Methods of facilitating cell survival using neurotrophin mimetics” (The University of North Carolina at Chapel Hill, priority 2005, dated 2010)
